Data on three molecules can be found in article PMC5520925.

Amino acid sequences for entries named in this document (tags omitted).
UniProt Q12834: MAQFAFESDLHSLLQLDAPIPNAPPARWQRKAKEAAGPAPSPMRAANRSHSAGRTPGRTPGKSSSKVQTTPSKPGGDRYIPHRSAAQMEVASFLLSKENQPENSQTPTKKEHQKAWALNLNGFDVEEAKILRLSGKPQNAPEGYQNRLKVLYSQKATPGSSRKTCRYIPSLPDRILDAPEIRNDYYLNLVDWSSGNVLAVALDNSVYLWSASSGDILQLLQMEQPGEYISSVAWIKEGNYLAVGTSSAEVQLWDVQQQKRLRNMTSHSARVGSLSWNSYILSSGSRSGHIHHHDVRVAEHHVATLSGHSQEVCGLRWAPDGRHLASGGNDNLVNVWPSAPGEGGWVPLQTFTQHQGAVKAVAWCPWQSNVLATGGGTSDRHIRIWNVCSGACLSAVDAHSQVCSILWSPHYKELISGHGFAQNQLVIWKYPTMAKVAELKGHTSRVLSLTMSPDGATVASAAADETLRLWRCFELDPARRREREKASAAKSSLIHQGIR

Assay [1] addresses T1, SMAR1, endogenous (human (endogenous in MCF7)) (UniProt Q8N9N5).
T1 sequence: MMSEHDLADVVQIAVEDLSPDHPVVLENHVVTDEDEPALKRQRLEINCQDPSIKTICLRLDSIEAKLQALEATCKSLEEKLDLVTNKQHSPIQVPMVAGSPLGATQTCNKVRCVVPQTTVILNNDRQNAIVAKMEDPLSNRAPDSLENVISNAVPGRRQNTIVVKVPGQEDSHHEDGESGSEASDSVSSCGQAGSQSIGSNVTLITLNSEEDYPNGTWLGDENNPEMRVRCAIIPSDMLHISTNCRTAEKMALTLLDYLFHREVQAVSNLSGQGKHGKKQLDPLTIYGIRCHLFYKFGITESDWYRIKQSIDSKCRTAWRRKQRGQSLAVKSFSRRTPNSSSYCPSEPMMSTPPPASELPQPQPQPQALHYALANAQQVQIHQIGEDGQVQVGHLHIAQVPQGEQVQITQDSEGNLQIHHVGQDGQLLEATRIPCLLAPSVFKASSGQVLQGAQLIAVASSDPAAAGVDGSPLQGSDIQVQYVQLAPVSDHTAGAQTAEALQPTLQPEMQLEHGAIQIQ
The assay is described as follows: co-IP; endogenous proteins; MCF7 cell extracts immunoprecipitated with SMAR1 antibody or IgG, immunoblot; un-irradiated cells; also irradiated cells with ATM inhibitor KU55933 (interaction restored); IP buffer 50 mM Tris pH 7.4, 200 mM NaCl, 0.1% Triton X-100, 4 C. Background: In western blotting, separated proteins are transferred to a membrane and probed.

Assay [2] deals with T1, SMAR1, endogenous (human (endogenous in MCF7)). The assay is described as follows: condition: only after ionizing radiation (10 Gy) of the cells; co-IP; endogenous proteins; lysates of MCF7 cells irradiated with ionizing radiation (10 Gy), immunoprecipitated with SMAR1 or Cdc20 antibody, immunoblot.
For assay [3], the target named is T2, FLAG-SMAR1 (scaffold matrix attachment region binding protein 1), wild type (UniProt Q8N9N5).
T2 sequence: T1 sequence
Put plainly: co-IP; MCF7 cells co-transfected with HA-Cdc20 and FLAG-SMAR1 (WT, D1 or D2); in Figure 2c treated with 10 uM MG132 for 6 h; whole cell extracts immunoprecipitated with anti-FLAG (or reciprocally), immunoblot; IP buffer 50 mM Tris pH 7.4, 200 mM NaCl, 0.1% Triton X-100, 4 C.

The target in assay [4] is HA-Cdc20 (cell division cycle 20 homolog) (UniProt Q12834). The description is as above.

Results are given in words; binding and its absence hold for the method and conditions named. In cells and extracts the contact can be indirect. Some results given as binding are weak or reduced against the parent protein; the word gives no strength. For some of these results: Tags and fused reporters may be left off the sequences shown.

With “Cdc20, endogenous (from UniProt Q12834 1-499)”, the figures for the binding entry in assay [1] and in assay [2] were “binds” and “no binding”, respectively.

Regarding “HA-Cdc20 (cell division cycle 20 homolog) (from UniProt Q12834 1-499)”, the binding entry in assay [3] was “binds”.

B1: FLAG-SMAR1 (scaffold matrix attachment region binding protein 1), wild type (protein, UniProt Q8N9N5 1-519)
chain: T1 sequence
Consider B1, for which the binding entry in assay [4] is recorded as “binds”.
